US11413334B2, “Lysin polypeptides active against Gram-negative bacteria” (CONTRAFECT CORPORATION, priority 2015, dated 2022)
Some entries share one result that the patent states for a list of compounds.

Key:
PAO1 cells = test: Killing assay of GN4-derived peptides in Tris-HCl buffer; details: peptide 10 mcg/ml, 1 hour, 37° C., 20 mM Tris-HCl pH 7.2, 10^5 PAO1 cells, FIG. 6
[1] = tested on: P. aeruginosa strain PAO1; test: Antibacterial activity of pooled GN lysins and GN peptides in human serum, with and without polymyxin B; details: PMB 1 mcg/ml, 1 hour in human serum

Row | Substance | decrease in cell viability (PAO1 cells) | decrease in viability, PMB alone [1]
1 | FGN4-4: FGN4-1 with a single C-terminal cysteine added (NKGDYQGAADQFPRWVNAGGKRLDGLVKRRAAERALFLEPLSC; artificially-created modified fragment of GN4 (SEQ ID NO 3)) | ≥ 4 log | –
2 | Polymyxin B [PMB] | – | < 2 log 10
